# From PubChem BioAssay AID1508600 (Functional Genomics Laboratory (NCATS/FGL), 2020)
# The whole screen tested about 53,000 sequences, of which about 3,700 (7%) were called active.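 How the source made its calls: active means gene knockdowns whose robust z-score for IL-1 alpha signal is at least 2 or at most -2, so actives lie on both sides; inactive means the rest.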 The list shows a part of the results.
# Assay: Components of the Cytosolic LPS Sensing Pathway: Gene Identification via Genome-wide siRNA Screen;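 further: robust z of the log signal after scaling to non-targeting control siRNA wells of the plate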
# Conditions: RAW264.7 macrophages, IL-1a HTRF, actives lie on both sides, screened at 100 nM (by protocol), cells primed 5 h with Pam3CSK4 first
# In short: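 RAW264.7; siRNA 100 nM final, RNAiMAX, 48h 37 degrees C; Pam3CSK4 5 h; LipidA + TransIT-TKO 24 h; IL-1a HTRF; CellTiter-Glo viability; robust z vs negative-control median.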
row,Sequence,z-score
1,CGCUCUCUACGAUCAUUGUTT against Olfr481,inactive: -0.387
2,GCAUCGUUAUGCGCCUCACTT against Neurog2,inactive: 0.297
3,GGAGCAUGUCUUUAAGAAGTT against Stac,inactive: -1.15
4,GGCGGUUCAAUAUUAAGCUTT against Mlxipl,inactive: 0.743
5,GGCUCCUAGUGAUUAAAAGTT against 4930578I06Rik,inactive: 0.0788
6,GGAAGAAGAGAAACACGAGTT against Xpa,inactive: -0.0701
7,GGAGGAUUACAACACUGUUTT against Enpp3,inactive: -0.617
8,GGACCUUGGCCUUACACAATT against Astn2,active: 2.29
9,GGAGAUUGUAGAGGACGUATT against U2af2,inactive: -0.745
10,GCUAGUAUUCUAAGAUCUUTT against Mpp6,active: 2.25
11,GGAUGACUUCAAAUCAGAATT against Tnip2,inactive: 0.156
12,GCGUGUACCCUUUCUAGUGTT against Slc18a3,inactive: 0.881
13,GGGCACAUACUCAGAUGAATT against Ngfr,inactive: -0.62
14,GCGGCAUAUGCCUACUCUUTT against Slc6a12,inactive: -0.381
15,CGAUUUGCAGCCCUCAUGATT against Inka1,active: -2.27
16,GGAGCUGAGAAACAAGAUUTT against Bspry,inactive: -0.972
17,CGCACAAUUACCUCAGCAATT against Rassf3,inactive: -1.39
18,GGUCUUUGAUGAAGAAGUGTT against Rsph9,inactive: -1.3
19,GCUUUCAAGUGGUUAUGAATT against Nsun6,inactive: 0.0136
20,GGAAGAUGACAACUUAUCUTT against Abcc8,inactive: -0.854
21,GGACUUCUUUGUAAUACUGTT against Abca13,inactive: 0.543
22,GGAUUAAACCAUUAACUGCTT against AY702102,inactive: 1.04

row,Sequence,z-score
1,GGAGAGCAGAUGUGAUUCUTT against Mrm2,inactive: -0.561
2,CCUGAUCUUCUGUGAUAGCTT against Olfr881,inactive: 0.602
3,UUUGCAUGUACAGAAUGCUTT against Olfr312,inactive: 1.54
4,GGAGCAGAUUAAAUCCCUGTT against Krt8,active: 2.46
5,GGUCCUAGUCUUUCAGAUGTT against Iqca,inactive: 1.7
6,GGAGACAGCACAAGUCCUGTT against H2-M10.2,inactive: -0.159
7,GGAUUUCAAACACGUCUUUTT against Asic5,inactive: 0.222
8,GGCUGACCUUCUGUGCUGATT against Olfr876,inactive: -0.98
9,GGUGUCAGAAGCAGUGUAUTT against Treml1,inactive: 0.459
10,GCUGGUCAAGGGUCUAGAGTT against Saa3,active: -2.05
11,CGGUCGUGAGUUUGUAUAUTT against Pyroxd1,inactive: 0.179
12,GCAUGUUCUUUGUCACCUGTT against Htr6,inactive: -0.334
13,GGAGGUAUUUACCAAAGAUTT against Acer2,inactive: 0.453
14,GGAGAAGAAGAAAAAGUCATT against BC005537,inactive: -0.495
15,CGAUGGAAAACCUCACAUCTT against Oaz2,inactive: -0.0735
16,GCACUGGACAUUGUACACCTT against Caskin1,inactive: 1.71
17,GGACAAGUUCAUAAAGAGATT against Cyp2r1,inactive: -0.991
18,GGUUACCUAUUACAUCAUATT against Pcdhgb4,inactive: 0.811
19,GGAGAUGCUAUAGAUGAAATT against Il20,inactive: -0.04
20,GCAUGAUCUCAUGUUCCUUTT against Tmem38b,inactive: 0.651
21,GCGAUUUCGUCUUCUGUUGTT against Wdr5b,inactive: -0.0399
22,GCAUAUGUGUGUUUAACCUTT against Rdh16,inactive: -0.0925

# A stretch of the results above, as a working copy:
row,Sequence,z-score
9,GGAGAUUGUAGAGGACGUATT against U2af2,inactive: -0.745
10,GCUAGUAUUCUAAGAUCUUTT against Mpp6,active: 2.25
11,GGAUGACUUCAAAUCAGAATT against Tnip2,inactive: 0.156
12,GCGUGUACCCUUUCUAGUGTT against Slc18a3,inactive: 0.881
13,GGGCACAUACUCAGAUGAATT against Ngfr,inactive: -0.62
14,GCGGCAUAUGCCUACUCUUTT against Slc6a12,inactive: -0.381

# Following part:

row,Sequence,z-score
1,GGAGAUACAAAUUUAAGAGTT against Tdp2,inactive: -1.17
2,GGAAGACUUUGCUUAUUGGTT against Tspan10,inactive: 0.693
3,GCAUGCUUCGCGUAUGCAATT against Gpr151,inactive: -0.72
4,GACUGUUUUACAUUCCACATT against Klra21,inactive: -0.138
5,GGAGUUGAUUGAGGUAAAGTT against Mettl3,inactive: -1.83
6,GCACAGACAUGAAGUACCGTT against Tcea3,inactive: 0.32
7,GCUGAGUUGACUCCUACUGTT against Mcpt1,active: -2.23
8,GCUUACCCUGACUCCAAUUTT against Dhx33,inactive: -1.76
9,GGCAACAAGGUCCUUUAAGTT against Mllt3,inactive: 1.86
10,GGAGGCUCUCACCGUAAACTT against Ttc7,inactive: -0.985
11,GGCUGGCAUCACCAUCAAATT against Kit,inactive: 0.429
12,CCCAACAACCAACUAUUUUTT against Kcna1,active: 3.36
13,GCGUGAUAGAGCUUUAUCUTT against Slc16a7,inactive: -0.337
14,GGCCAAUUAACUAUGAAUUTT against Idi2,inactive: 0.197
15,GGCUUCUAGUGGGAUGUAATT against Slc45a1,inactive: -0.16
16,GCUGGGUCUAAACUGUGCCTT against Cpsf2,inactive: 0.302
17,GGACUGCUUACCUAAAAGUTT against Insig1,inactive: 1.06
18,GGAGCGUAGCAUUUGCAUATT against Gcnt2,inactive: 1.81
19,CCCUAAUAAUCAAUGCAUCTT against Ifit1bl2,inactive: 0.239
20,GGCCAAAUUCUUCAGCAGATT against Rpl27a,inactive: -0.263
21,CCUAACAAAUGGUGGGAAATT against Nxph1,inactive: 0.819
22,GGAACAGUUUGCUUGGAGATT against Rps10,inactive: 0.455

row,Sequence,z-score
1,CCUCACAUAUACUGAGCUUTT against Parp12,inactive: 0.665
2,GGACUCCUCCCAAGACGAATT against Avil,inactive: -0.118
3,GCUGCUGUCCUAAACUUUCTT against Wdr83os,inactive: -0.0195
4,GGAUUCUGAGCGUAGCUGATT against Mblac1,inactive: 0.761
5,CCAUUGUCAAGCCAGACUATT against Emilin1,inactive: -1.2
6,GCUCAGCCUGAGUAACGCATT against Nup62,inactive: -0.323
7,GCUGGUCAUCAUGUGGAAGTT against Ssu2,inactive: 1.04
8,CGGUCUACAAUAACAACAGTT against 1700009J07Rik,inactive: -0.631
9,GCACAGCUCUACAUAUUUCTT against Olfr313,inactive: 0.595
10,GGUCCUAACAUCCAGAGUGTT against Zfp438,inactive: -1.06
11,GCUGAGGGUAAAACCGGAATT against Tbc1d22b,inactive: 1.34
12,GGAAGAGGCAGAUUUAUGGTT against Prss23,inactive: 0.856
13,GGGAGAGGACCUCAAUGAATT against Mob1a,inactive: -0.0583
14,GGUACUGUGGUUUAUUCCUTT against Zmat2,inactive: 1.01
15,GACCACCAGAAAGUUUCACTT against Lfng,inactive: 0.339
16,GCUCCACUCAAUUCAGUCCTT against Cd19,inactive: -0.0698
17,GGUGACACUUCUUGUGGAUTT against Kctd20,inactive: 0.76
18,GGCUGUUCCAUGAAGUUGUTT against Noc2l,inactive: -1.09
19,GGCAUUGUAUUUAACACACTT against Aass,inactive: 1.76
20,GGUAACCCACUUCCUUCCUTT against Fgf4,inactive: -0.568
21,GCAGGCUCGCUGUAACUACTT against Ocel1,inactive: -1.04
22,GGGACUGACGUAUAAAUACTT against Dnase2a,inactive: 0.0971

row,Sequence,z-score
1,GGAAUUAAAGAAAUAUGGCTT against Hspa4l,inactive: -0.937
2,CCUUUAAGUACACUUGUGUTT against Oas1c,inactive: 0.226
3,GCAAAGUCUAAGUUCUAUGTT against Osbpl5,inactive: -0.718
4,CGCAUUACAUUAGCCAAAATT against Ttc28,inactive: 1.21
5,GGUUUAUUCUUGCUACUUUTT against Tmem62,inactive: 0.501
6,CGUACCAGGAUUUUGAUAUTT against Adam17,inactive: 0.865
7,GGUUCAGUUUGCCAAAGACTT against Elfn1,inactive: 1.45
8,GGUUCAACGACCUUCGAUUTT against Runx3,inactive: 0.175
9,GGACCAUGAGUUACCGCAUTT against Plaur,inactive: 0.53
10,GCUCCAUCUACAAACAAUGTT against Gpr37l1,inactive: 1.53
11,GCAACUCUAUCACUAAACUTT against Il2ra,inactive: 1.84
12,GCUGGAGGGAUGCGAAUCUTT against Dapl1,inactive: 1.27
13,CCAAGGAUUGUAAAGAAACTT against Hunk,inactive: -0.471
14,GGAAGAAAGUCCUCUUUGCTT against Slc22a4,inactive: -0.807
15,GGCUCCUAAAAAGUUUGCATT against Nemp2,inactive: -0.703
16,CGACUCAAUCAAUCUGAUUTT against Hook3,inactive: 0.898
17,GGACUUCUCCAUCCUGACATT against Col5a1,inactive: -0.404
18,GGCCCAGAAGGUUAUCAUCTT against Ptf1a,inactive: 0.606
19,GGGACAGAUUUUGAACUGATT against Cd2,inactive: 0.567
